Laboratory results: PubChem BioAssay AID1259316 (Drosophila RNAi Screening Center, 2017)
Screen: 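Genes affecting cellular ATP levels after a toxic manganese dose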. Cell system: Drosophila S2R+ cells. Reagents: long dsRNA against Drosophila genes. Time to read-out: 5 days (4 days knock-down, then 1 day with metal). Challenge: manganese chloride added to 15 mM for the last 24 hours. Detection: 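After 4 days of knock-down, cells got 15 mM manganese chloride for 1 day; ATP measured by luciferase light as viability, z-scored, mean of two replicates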. Scale: ATP z-score, set 1 (call basis) and ATP z-score: higher = more ATP, more viable cells under manganese. Rule for the call: 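Active means the set 1 averaged z-score lies outside the range -1.5 to 1.5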. Calls: active = ATP shifted up or down; inactive = no clear ATP shift.
Shown is a random part of 95 reagents tested. 12 of all reagents (13%) were called active. 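Calls follow set 1 z-scores only; applying the same cut-off to set 2 alone does not give the same calls.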 No sequences are given here. Not stated in the record: the amount of reagent.

gene	dsRNA	ATP z-score, set 1 (call basis)	ATP z-score, set 2	call
Vha16-1	DRSC05020	1.99	1.92	active
Vha16-1	DRSC32229	0.751	0.789	inactive
MtnA	DRSC21588	0.596	0.84	inactive
CG42674	DRSC29701	0.345	0.252	inactive
CG42674	DRSC35487	0.129	-0.179	inactive
Alk	DRSC23342	-0.401	-0.367	inactive
Alk	DRSC33404	-0.113	-0.214	inactive
Alk	DRSC36973	-0.308	-0.0196	inactive
MFS10	DRSC26960	0.8	0.818	inactive
MFS10	DRSC36116	-0.179	0.155	inactive
sp3	DRSC16354	0.384	-0.146	inactive
sp3	DRSC41446	0.341	-0.175	inactive
Sac1	DRSC34470	0.52	-0.124	inactive
Sac1	DRSC34471	-0.584	-0.308	inactive
Orct	DRSC16777	-0.535	-0.109	inactive
Orct	DRSC25574	0.0673	0.877	inactive
-816832516	DRSC36755	0.0539	-0.426	inactive
Lnk	DRSC16729	-0.534	0.242	inactive
Lnk	DRSC31005	0.685	0.237	inactive
Vha44	DRSC24506	1.97	2.03	active
Vha44	DRSC32230	2.71	1.51	active
Syx5	DRSC03432	0.812	1.21	inactive
Syx5	DRSC40872	0.914	0.15	inactive
ATP7	DRSC19819	0.443	-0.765	inactive
ATP7	DRSC39460	-0.668	-0.0919	inactive
Vha68-2	DRSC28637	3.11	2.91	active
Vha68-2	DRSC31692	1.92	2.34	active
CHMP2B	DRSC10436	-0.629	-0.737	inactive
CHMP2B	DRSC26221	1.64	0.512	active
Nhe2	DRSC03172	-0.778	-0.442	inactive
Nhe2	DRSC03377	-0.186	-0.0992	inactive
mTor	DRSC02811	-0.0316	-0.185	inactive
mTor	DRSC40810	0.15	0.381	inactive
MFS14	DRSC06524	0.0612	0.161	inactive
MFS14	DRSC39753	-0.603	-0.143	inactive
SERCA	DRSC04600	-0.929	-0.397	inactive
SERCA	DRSC26195	-1.24	-0.821	inactive
iPLA2-VIA	DRSC10699	0.414	-0.0773	inactive
iPLA2-VIA	DRSC37171	0.189	-0.665	inactive
eEF1gamma	DRSC23655	0.312	0.863	inactive
eEF1gamma	DRSC35716	0.0341	1.48	inactive
p38c	DRSC22939	-0.357	-0.348	inactive
p38c	DRSC37357	0.0312	-0.0426	inactive
alphaCOP	DRSC08706	0.125	-1.02	inactive
alphaCOP	DRSC30831	-0.808	-0.765	inactive
alphaCOP	DRSC30832	-1.28	-0.995	inactive
ZnT63C	DRSC23528	-0.104	-0.221	inactive
ZnT63C	DRSC37698	0.36	0.501	inactive
Cdc50	DRSC20224	-0.326	0.269	inactive
Zip102B	DRSC17155	-0.157	-0.17	inactive
Zip102B	DRSC39247	-0.134	-0.34	inactive
Pop2	DRSC10537	0.963	1.17	inactive
Pop2	DRSC32413	2.15	2.83	active
Mvl	DRSC16752	-0.322	-0.0457	inactive
Mvl	DRSC39671	-0.462	-0.531	inactive
Sod1	DRSC11286	1.34	0.827	inactive
Sod1	DRSC40766	0.296	0.322	inactive
CG7536	DRSC20050	-0.283	-0.429	inactive
CG7536	DRSC39596	0.00814	0.09	inactive
Ctr1A	DRSC40310	-1.99	-1.83	active
Ctr1A	DRSC40902	-1.94	-1.95	active
Catsup	DRSC03288	0.257	-0.563	inactive
Catsup	DRSC25727	-0.1	0.385	inactive
Catsup	DRSC40427	-0.019	-0.413	inactive
Sod2	DRSC07554	0.0217	-0.163	inactive
Sod2	DRSC27050	1.08	0.968	inactive
Vha36-1	DRSC07098	1.62	1.64	active
Vha36-1	DRSC25624	0.737	1.67	inactive
Atox1	DRSC22416	-0.186	0.0122	inactive
VhaSFD	DRSC03471	0.708	1.36	inactive
VhaSFD	DRSC32234	2.87	2.45	active
VhaSFD	DRSC32235	1.47	1.92	inactive
p38a	DRSC36706	-0.189	-0.294	inactive
p38a	DRSC37322	-0.226	-0.46	inactive
rl	DRSC31395	-0.244	0.441	inactive
rl	DRSC31396	-0.821	-0.459	inactive
SPoCk	DRSC11844	0.106	-0.565	inactive
SPoCk	DRSC24007	-0.288	-0.181	inactive
p38b	DRSC37327	1.26	0.0194	inactive
CG6126	DRSC15971	0.174	0.583	inactive
CG6126	DRSC39462	-0.207	-0.606	inactive
CG6006	DRSC13137	-0.367	-0.00912	inactive
CG6006	DRSC15946	-0.303	-0.0721	inactive
stw	DRSC04842	0.0127	-0.49	inactive
stw	DRSC04843	-0.678	-0.144	inactive

Reprinted from the entries so far, 4 entries:
gene	dsRNA	ATP z-score, set 1 (call basis)	ATP z-score, set 2	call
mTor	DRSC02811	-0.0316	-0.185	inactive
mTor	DRSC40810	0.15	0.381	inactive
MFS14	DRSC06524	0.0612	0.161	inactive
MFS14	DRSC39753	-0.603	-0.143	inactive
